Our source for the binding values is PMC7094076.

By UniProt entry, the sequences of proteins in these tests, tags left out. Where a name states a change or a piece, a line headed by the entry shows the natural chain unless it says otherwise.
UniProt F4JZD0: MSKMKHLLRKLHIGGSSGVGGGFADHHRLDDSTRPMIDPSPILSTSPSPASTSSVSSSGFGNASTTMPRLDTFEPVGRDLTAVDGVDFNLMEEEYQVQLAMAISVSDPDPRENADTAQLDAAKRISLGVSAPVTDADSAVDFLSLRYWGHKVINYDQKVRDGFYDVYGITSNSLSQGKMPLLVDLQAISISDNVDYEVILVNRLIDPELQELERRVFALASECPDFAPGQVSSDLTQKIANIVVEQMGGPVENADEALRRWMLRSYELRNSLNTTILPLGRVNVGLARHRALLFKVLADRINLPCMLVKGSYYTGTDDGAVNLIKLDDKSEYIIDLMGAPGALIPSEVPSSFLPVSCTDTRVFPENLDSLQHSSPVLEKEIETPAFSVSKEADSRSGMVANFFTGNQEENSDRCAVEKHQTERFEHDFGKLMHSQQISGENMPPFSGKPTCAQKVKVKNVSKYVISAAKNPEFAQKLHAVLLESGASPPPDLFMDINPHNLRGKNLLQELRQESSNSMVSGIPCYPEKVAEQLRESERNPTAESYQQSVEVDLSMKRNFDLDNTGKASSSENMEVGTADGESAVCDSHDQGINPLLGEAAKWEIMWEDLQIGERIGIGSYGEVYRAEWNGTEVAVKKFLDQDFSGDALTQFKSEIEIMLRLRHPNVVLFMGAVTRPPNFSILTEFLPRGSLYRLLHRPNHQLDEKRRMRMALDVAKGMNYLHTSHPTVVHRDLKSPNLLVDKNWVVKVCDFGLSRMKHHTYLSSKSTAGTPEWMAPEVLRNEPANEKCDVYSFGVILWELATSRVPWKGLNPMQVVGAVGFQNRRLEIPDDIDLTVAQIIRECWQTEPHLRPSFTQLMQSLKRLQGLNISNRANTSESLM

This assay addresses T1, AtNFXL1 (Arabidopsis (endogenous in WT plants)) (UniProt Q9SY59).
T1 sequence: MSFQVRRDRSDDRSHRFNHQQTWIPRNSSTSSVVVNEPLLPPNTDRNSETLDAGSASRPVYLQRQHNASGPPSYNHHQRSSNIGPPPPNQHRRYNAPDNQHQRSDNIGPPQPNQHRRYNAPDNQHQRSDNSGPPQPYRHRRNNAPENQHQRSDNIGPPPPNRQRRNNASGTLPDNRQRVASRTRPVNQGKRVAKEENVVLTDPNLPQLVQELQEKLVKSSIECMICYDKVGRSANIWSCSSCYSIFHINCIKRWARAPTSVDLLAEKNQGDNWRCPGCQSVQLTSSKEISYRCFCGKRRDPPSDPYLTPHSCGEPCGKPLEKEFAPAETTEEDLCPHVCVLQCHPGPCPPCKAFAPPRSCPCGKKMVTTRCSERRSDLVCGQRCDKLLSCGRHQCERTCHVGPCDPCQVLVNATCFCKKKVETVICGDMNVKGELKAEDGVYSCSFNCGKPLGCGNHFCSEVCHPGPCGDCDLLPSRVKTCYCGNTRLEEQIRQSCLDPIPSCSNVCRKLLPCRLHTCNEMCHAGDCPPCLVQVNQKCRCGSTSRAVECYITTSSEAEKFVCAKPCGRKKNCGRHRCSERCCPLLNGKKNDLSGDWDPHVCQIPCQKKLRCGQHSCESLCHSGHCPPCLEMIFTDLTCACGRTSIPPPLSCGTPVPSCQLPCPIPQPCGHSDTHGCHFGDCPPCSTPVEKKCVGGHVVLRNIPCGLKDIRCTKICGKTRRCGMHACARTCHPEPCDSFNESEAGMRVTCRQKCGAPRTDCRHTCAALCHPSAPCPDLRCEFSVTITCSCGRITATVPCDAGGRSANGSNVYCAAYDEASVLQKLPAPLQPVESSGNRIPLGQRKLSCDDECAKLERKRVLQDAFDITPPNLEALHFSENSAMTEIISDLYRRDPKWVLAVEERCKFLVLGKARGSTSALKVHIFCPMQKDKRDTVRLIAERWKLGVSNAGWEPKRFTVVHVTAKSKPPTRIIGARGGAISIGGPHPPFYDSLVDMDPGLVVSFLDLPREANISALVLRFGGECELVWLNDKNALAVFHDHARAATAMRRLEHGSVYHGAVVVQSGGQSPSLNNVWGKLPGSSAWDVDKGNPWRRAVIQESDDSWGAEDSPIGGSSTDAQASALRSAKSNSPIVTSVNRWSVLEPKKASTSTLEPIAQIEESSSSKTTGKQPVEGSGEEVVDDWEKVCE
The experiment in a line: affinity purification with mass spectrometry.

No constants are given. Whether binding was seen depends on the method and setting. In cells and extracts the contact can be indirect. A yes stands for co-enrichment or nearness to the bait. Other partners may have been found.

Regarding MAPKKK δ-1 (MKD1) (from UniProt F4JZD0), the binding result is recorded as “binds”.
